Laboratory results as given in publication doi:10.1101/2025.06.12.659319.
No constants are given. Whether binding was seen depends on the method and setting. For some assays here: Binding can be weak; no strength is given.

Columns and labels:
[1] = target: T1, FITC-ΔNp63α NLSbip peptide (residues 278-302) (human); experiment: fluorescence polarisation
T1 sequence (peptide, FITC on the N-terminus): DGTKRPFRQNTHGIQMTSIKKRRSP

[2] = target: T2, FITC-ΔNp63α NLS mNLSbip peptide (human); experiment: fluorescence polarisation
T2 sequence (peptide, FITC on the N-terminus): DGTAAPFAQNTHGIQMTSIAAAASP

| binding [1] | binding [2] | Substance |
| --- | --- | --- |
| binds | – | human IMPα5ΔIBB (importin α5 lacking the IMPβ1 binding domain) (domain or fragment) |
| – | no binding (tested: 20 μM) | mIMPα1ΔIBB (label of the legend of Figure 3B) (domain or fragment) |
